In publication PMC4159269:
These are yes or no findings as the source states them, for the method shown. In cells and extracts the contact can be indirect. Some results given as binding are weak or reduced against the parent protein; the word gives no strength. Sequences can lack the tags named with a protein.

By UniProt entry, the sequences of proteins in these tests, tags left out.
UniProt Q9H6Z9: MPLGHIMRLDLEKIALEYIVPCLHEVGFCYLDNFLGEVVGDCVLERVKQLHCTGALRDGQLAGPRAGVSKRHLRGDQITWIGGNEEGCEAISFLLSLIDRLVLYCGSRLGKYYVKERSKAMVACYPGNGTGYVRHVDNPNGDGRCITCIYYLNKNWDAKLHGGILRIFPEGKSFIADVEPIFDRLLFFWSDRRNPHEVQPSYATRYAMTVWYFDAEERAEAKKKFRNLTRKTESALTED

T1: FLAG-Siah2 SBD (substrate binding domain) (human) (UniProt O43255)
T1 sequence: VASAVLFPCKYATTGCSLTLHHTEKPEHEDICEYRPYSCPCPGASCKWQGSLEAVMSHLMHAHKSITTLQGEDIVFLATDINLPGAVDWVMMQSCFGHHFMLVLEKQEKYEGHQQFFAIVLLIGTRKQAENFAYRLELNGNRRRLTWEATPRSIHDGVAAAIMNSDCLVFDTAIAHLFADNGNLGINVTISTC

T2: full length FLAG-Siah2 (human) (UniProt O43255)
T2 sequence: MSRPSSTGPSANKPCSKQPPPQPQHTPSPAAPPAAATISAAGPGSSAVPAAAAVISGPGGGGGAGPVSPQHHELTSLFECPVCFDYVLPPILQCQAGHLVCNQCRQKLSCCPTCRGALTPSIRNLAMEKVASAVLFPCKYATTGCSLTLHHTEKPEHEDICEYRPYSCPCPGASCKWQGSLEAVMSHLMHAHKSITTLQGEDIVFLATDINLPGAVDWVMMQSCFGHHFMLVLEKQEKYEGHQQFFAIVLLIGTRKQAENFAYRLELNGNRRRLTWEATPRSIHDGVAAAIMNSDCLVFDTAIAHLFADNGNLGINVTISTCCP

T3: GST-Siah2 SBD (residues 130-322) (human) (UniProt O43255)
T3 sequence: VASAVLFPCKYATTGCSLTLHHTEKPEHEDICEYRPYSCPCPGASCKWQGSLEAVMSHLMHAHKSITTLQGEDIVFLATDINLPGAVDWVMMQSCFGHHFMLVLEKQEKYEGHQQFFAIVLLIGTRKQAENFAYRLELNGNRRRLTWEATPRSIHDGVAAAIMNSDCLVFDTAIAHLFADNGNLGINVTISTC


How the values were obtained:
[1] = molecular target: T1, FLAG-Siah2 SBD (substrate binding domain) (human); assay: co-IP; HEK293T co-transfected with FLAG-Siah construct and HA-PHD3; lysate on anti-FLAG M2 agarose beads, 4°C 1 hour, washed with NP40 lysis buffer; blot with anti-HA; densitometry as percentage of WT Siah2 SBD for Fig. 7c
[2] = molecular target: T2, full length FLAG-Siah2 (human); assay: as above
[3] = molecular target: T3, GST-Siah2 SBD (residues 130-322) (human); assay: pull-down; GST-Siah2 SBD on glutathione sepharose beads incubated with lysate of HEK293T cells transfected with HA-PHD3, 1 hour at 4°C, 50 mM Tris-HCl pH 8, 150 mM NaCl, 1 mM DTT, 5% glycerol, 0.1% Triton X-100; blot with anti-HA; only the target purified
[4] = molecular target: HA-PHD3 (prolyl hydroxylase 3) (human) (UniProt Q9H6Z9); assay: co-IP; HEK293T co-transfected with FLAG-Siah1 construct and HA-PHD3; HA immunoprecipitation of lysate; blot with anti-FLAG

binding [1] | binding [2] | binding [3] | binding [4] | Molecule
binds | binds | binds |  | HA-PHD3 (prolyl hydroxylase 3) (from UniProt Q9H6Z9 1-239)
 |  |  | no binding | full length FLAG-Siah1 (protein, UniProt Q8IUQ4 1-282) MSRQTATALPTGTSKCPPSQRVPALTGTTASNNDLASLFECPVCFDYVLPPILQCQSGHLVCSNCRPKLTCCPTCRGPLGSIRNLAMEKVANSVLFPCKYASSGCEITLPHTEKADHEELCEFRPYSCPCPGASCKWQGSLDAVMPHLMHQHKSITTLQGEDIVFLATDINLPGAVDWVMMQSCFGFHFMLVLEKQEKYDGHQQFFAIVQLIGTRKQAENFAYRLELNGHRRRLTWEATPRSIHEGIATAIMNSDCLVFDTSIAQLFAENGNLGINVTISMC
